The source of these data is the supplement of paper PMC7125110.

± gives the standard error. The uncertainty is large for many entries.

To fix the notation:
B1: glmS ribozyme (parent)
chain: AUAAAAGCGCCAGAACUACAGAAAUGUAGUUGACGAGGAGGAGGUUUAUCGAAUUUUCGGCGGAUGCCUCCAAA

Variants of B1 are the subject of one series. The experiment in a line: KM; higher = weaker cofactor use; RNA array. The note with it: with glucosamine-6-phosphate. Summed up: (§1)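 Tiles bearing barcoded ribozyme variants, transcribed in situ by E. coli RNA polymerase on sequenced MiSeq chips, were imaged over ~14 h at 37 °C using a hybridised Cy3 probe. Glucosamine-6-phosphate was supplied at 40 μM to 10 mM in HEPES/KCl/Mg(OAc)2 buffer. kobs came from one- or two-exponential decay fits to normalised per-tile medians, and weighted Michaelis–Menten fits then provided kcat and KM.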
Take U65C C71U: the KM – broadly, the concentration of substrate that gives half-maximal velocity – was 1460 ± 510 µM.
Same read-out and setting: for U56A U69A the value was 85.5 ± 69 µM; for C58U C71A, 19700 ± 5800 µM; for U55G U69C, 33.6 ± 22 µM.
Still for that read-out and setting: the result for A53C C68U reads 858 ± 310 µM; that for U47G C71A, 963 ± 900 µM; that for A48G C50A G63A, 29.7 ± 27 µM.
Still for that read-out and setting: for C61A C68U the value was 202 ± 130 µM; for U55G G66C, 1400 ± 710 µM; for A53G U56A, 1830 ± 890 µM.
Consider C67G C68U, for which the KM turned out to be 234 ± 34 µM.
As to A52G C71U, the KM was 3440 ± 380 µM.
The same measure, in the same setting: for U55G C70G the value was 103 ± 81 µM; for U56G C68A, 103 ± 80 µM; for U56G C68G, 2280 ± 1300 µM.
Turning to U47C A64G, the Michaelis constant (KM) was determined as 1890 ± 650 µM.
Still for that read-out and setting: for U54C C70G the value was 104 ± 73 µM.
Take U54C C70A: the KM is 379 ± 290 µM.
Same read-out and setting: for G66U U69A the value was 493 ± 290 µM; for U57A U65G, 416 ± 410 µM.
Turning to U49G U54G C67A, the KM worked out at 268 ± 250 µM.
On the same count and under the same terms, for C50G C71U the value was 28.8 ± 24 µM.
The same measure, in the same setting: the result for A48G C71U reads 382 ± 350 µM.
On the same count and under the same terms, for A64G U65G the value was 4490 ± 1700 µM; for U47C C71A, 3980 ± 2000 µM; for A53C U57G, 2470 ± 1700 µM.
U49G C70G: the KM was 72.1 ± 49 µM.
The same measure, in the same setting: the result for U46G G66A reads 2580 ± 720 µM; that for U57C C58G, 1320 ± 950 µM.
With C67A, the Michaelis-Menten constant (KM) came out at 1730 ± 380 µM.
Same read-out and setting: the result for C67G reads 2390 ± 300 µM; that for U54G A64G, 1450 ± 800 µM; that for A52U C71G, 1700 ± 380 µM.
In the case of U56G U69A, the Michaelis constant (KM) stood at 246 ± 200 µM.
Same read-out and setting: for U65G U69G the value was 214 ± 120 µM; for G51A C68A, 141 ± 140 µM; for A48C U56A, 3130 ± 1900 µM.
Still for that read-out and setting: the result for A48G U55A reads 1160 ± 180 µM.
Still for that read-out and setting: the result for U57A C67A reads 3150 ± 2100 µM.
On to U47A C67A, for which the Michaelis-Menten constant (KM) was determined as 2150 ± 1400 µM.
The same measure, in the same setting: for U55A the value was 1770 ± 530 µM; for U54C G62C, 133 ± 48 µM.
Same read-out and setting: the result for C58U C67G reads 86.5 ± 61 µM; that for C58A U65C, 5030 ± 1300 µM; that for C61U C67A, 147 ± 110 µM.
On the same count and under the same terms, the result for C70U C71A reads 607 ± 110 µM; that for C67U C70U, 1370 ± 110 µM; that for U47C U56G, 1580 ± 540 µM.
Take U47C U56A: the Michaelis-Menten constant (KM) was 2640 ± 1700 µM.

Variants of B1 are the subject of the next series. The experiment in a line: self-cleavage kobs at 40 uM GlcN6P; higher = faster cleavage; RNA array. As to conditions: with glucosamine-6-phosphate. Summed up:
as §1
For A14G A15G U47C U55A C70G, the “self-cleavage kobs at 40 uM GlcN6P” value came out at 3.78e-05 ± 2.6e-05 s⁻¹.
Same read-out and setting: the result for C16U G32U reads 2.52e-05 ± 1.3e-05 s⁻¹; that for A12C G29C C70U, 2.09e-05 ± 1.6e-05 s⁻¹; that for C11U C71G, 2.42e-05 ± 1.8e-05 s⁻¹.
Take U55G G66C: the “self-cleavage kobs at 40 uM GlcN6P” value turned out to be 2.46e-05 ± 1.6e-05 s⁻¹.
Regarding G13A U31C, the “self-cleavage kobs at 40 uM GlcN6P” value worked out at 1.08e-05 ± 1e-05 s⁻¹.
Regarding A15U U56C, the “self-cleavage kobs at 40 uM GlcN6P” value came out at 1.75e-05 ± 9.1e-06 s⁻¹.
As for G29C U69G, the “self-cleavage kobs at 40 uM GlcN6P” value was 1.56e-05 ± 1.5e-05 s⁻¹.
For the variant C8G G32A A36U C61A G63U C68G, the “self-cleavage kobs at 40 uM GlcN6P” value came to 3.13e-05 ± 2.4e-05 s⁻¹.
As for C8G A36U C70G, the “self-cleavage kobs at 40 uM GlcN6P” value was 2.57e-05 ± 2.2e-05 s⁻¹.
The same measure, in the same setting: for G13U A64G the value was 1.27e-05 ± 8.4e-06 s⁻¹.
As for A14C U30C A42G C70G, the “self-cleavage kobs at 40 uM GlcN6P” value amounted to 3.43e-05 ± 2.9e-05 s⁻¹.
On the same count and under the same terms, the result for G29C A36C C70A reads 4.12e-05 ± 2.5e-05 s⁻¹; that for G13U C67U, 1.73e-05 ± 1.2e-05 s⁻¹.
G13C A14G U69G: the “self-cleavage kobs at 40 uM GlcN6P” value was determined as 3.32e-05 ± 2.1e-05 s⁻¹.
For C11G C50U C61U C70G, the “self-cleavage kobs at 40 uM GlcN6P” value came to 2.97e-05 ± 2.4e-05 s⁻¹.
As to A14U U69A, the “self-cleavage kobs at 40 uM GlcN6P” value is 1.55e-05 ± 1.3e-05 s⁻¹.
Take C8A U69A: the “self-cleavage kobs at 40 uM GlcN6P” value amounted to 2.7e-05 ± 2.3e-05 s⁻¹.
Same read-out and setting: the result for G9A U69G reads 5.56e-05 ± 2.9e-05 s⁻¹; that for C11U U69A, 2.84e-05 ± 1.5e-05 s⁻¹.
As for C11U U69C, the “self-cleavage kobs at 40 uM GlcN6P” value was found to be 3.1e-05 ± 1.9e-05 s⁻¹.
On to C11A U49C U65G C68U, for which the “self-cleavage kobs at 40 uM GlcN6P” value came to 3.66e-05 ± 2.3e-05 s⁻¹.
Same read-out and setting: the result for G13A C50G G66U reads 0.000522 ± 0.00027 s⁻¹; that for G7U U55G C70G, 4.68e-05 ± 4.2e-05 s⁻¹.
Same read-out and setting: the result for C16U U69G reads 2.12e-05 ± 1.3e-05 s⁻¹.
Turning to A15G C16A C70U, the “self-cleavage kobs at 40 uM GlcN6P” value turned out to be 3.05e-05 ± 1.9e-05 s⁻¹.
Same read-out and setting: the result for A15G C16G C50G U54C reads 2.49e-05 ± 2.3e-05 s⁻¹; that for C8G G29U U69G, 7.94e-05 ± 4.1e-05 s⁻¹; that for A14C U45C A64G G66A, 2.42e-05 ± 2.3e-05 s⁻¹.
Same read-out and setting: for C67U C70U the value was less than 1e-05 s⁻¹; for G7A U49A C50U U54G C70G, 3.97e-05 ± 2.9e-05 s⁻¹.

Variants of B1 are the subject of the next series. The experiment in a line: self-cleavage kobs at 160 uM GlcN6P; higher = faster cleavage; RNA array. As to conditions: with glucosamine-6-phosphate. Summed up: as §1
Take C11U C71G: the “self-cleavage kobs at 160 uM GlcN6P” value worked out at 2.64e-05 ± 1.5e-05 s⁻¹.
Regarding A53C U57G, the “self-cleavage kobs at 160 uM GlcN6P” value came out at 1.93e-05 ± 1.3e-05 s⁻¹.

The next series covers variants of B1. The experiment in a line: self-cleavage kobs at 640 uM GlcN6P; higher = faster cleavage; RNA array. The note with it: with glucosamine-6-phosphate. Summed up: as §1
In the case of U56G C68A, the “self-cleavage kobs at 640 uM GlcN6P” value was 2.94e-05 ± 1.9e-05 s⁻¹.
On the same count and under the same terms, the result for U56G C68G reads 1.96e-05 ± 1.3e-05 s⁻¹.
Still for that read-out and setting: the result for U57A U65G reads 2.07e-05 ± 2e-05 s⁻¹.
With G13A C50G G66U, the “self-cleavage kobs at 640 uM GlcN6P” value was found to be 0.000406 ± 0.00023 s⁻¹.
Regarding G51A C68A, the “self-cleavage kobs at 640 uM GlcN6P” value is 2.73e-05 ± 1.7e-05 s⁻¹.
Regarding A48C U56A, the “self-cleavage kobs at 640 uM GlcN6P” value amounted to 1.3e-05 ± 1.3e-05 s⁻¹.
Still for that read-out and setting: the result for A48G U55A reads 3.72e-05 ± 2e-05 s⁻¹.

Variants of B1 are the subject of the next series. The experiment in a line: self-cleavage kobs at 10000 uM GlcN6P; higher = faster cleavage; RNA array. As to conditions: with glucosamine-6-phosphate. Summed up: as §1
For U56G C68A, the “self-cleavage kobs at 10000 uM GlcN6P” value was 2.42e-05 ± 1.8e-05 s⁻¹.
For C50G C71U, the “self-cleavage kobs at 10000 uM GlcN6P” value was 0.000765 ± 0.00055 s⁻¹.
As for G7U U55G C70G, the “self-cleavage kobs at 10000 uM GlcN6P” value was 3.57e-05 ± 2e-05 s⁻¹.

The variants in the next series derive from B1. The experiment in a line: self-cleavage kobs at 2500 uM GlcN6P; higher = faster cleavage; RNA array. As to conditions: with glucosamine-6-phosphate. Summed up: as §1
On to G13A C50G G66U, for which the “self-cleavage kobs at 2500 uM GlcN6P” value was 6.18e-05 ± 3.4e-05 s⁻¹.
Consider G51A C68A, for which the “self-cleavage kobs at 2500 uM GlcN6P” value was 2.69e-05 ± 1.7e-05 s⁻¹.
Turning to C58A U65C, the “self-cleavage kobs at 2500 uM GlcN6P” value worked out at 2.25e-05 ± 1.9e-05 s⁻¹.
